# PubChem BioAssay AID587 (National Center for Advancing Translational Sciences (NCATS), 2007)
# Several values for one entry are separate records, joined by “and”; a condition that tells them apart may be missing. Equal values may be shown once. In all, about 59,000 compounds went through this assay and about 35 (0.06%) were called active. The shares of active, inactive and inconclusive entries below differ from those in the screen. Rule as the data show it: active = max dye-equivalent concentration above about 10 nM; inconclusive = between about 1.1 nM and that limit; inactive = weaker than that.
# Assay: qHTS Assay for Spectroscopic Profiling in Texas Red Spectral Region
# Conditions: Compound fluorescence, Texas Red channel, 547/618 nm; stronger effect = higher value
# How it was run: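 Dye-equivalent concentrations come from scaling compound signal (ex 547, em 618 nm) to six Texas Red standard concentrations run on every plate, after 15 min room-temperature incubation in pH 8.0 Tris (100 mM).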
row,SMILES,max dye-equivalent concentration
1,COC(=O)c1c(NC(=O)COC(=O)Cn2cnc3ccccc32)sc(C)c1C,inconclusive: 1.3e-09 M
2,CC(OC(=O)CN(C)S(=O)(=O)c1ccc(Cl)cc1)C(=O)Nc1ccc(N2CCOCC2)cc1 (stereo unspecified),inconclusive: 1.1e-09 M
3,N#CC(C(=O)Nc1ccc(Cl)cc1)=C1Nc2ccccc2N1,inconclusive: 1.9e-09 M
4,Cc1[nH]n(-c2ccccc2)c(=O)c1S(=O)(=O)c1ccccc1,inconclusive: 1.1e-09 M
5,CCCn1nnc(NC(=O)c2sc3ccccc3c2Cl)n1,inconclusive: 2.8e-09 M
6,CSC1=Nc2sc3c(c2C2=NCCN12)CCCC3,inconclusive: 1.6e-09 M
7,CCN1CCN(C(=O)c2nn(-c3ccc(C)cc3)c(=O)c3c2c2ccccc2n3C)CC1,inconclusive: 1.2e-09 M
8,CCc1nnc(NC(=O)CSc2nnc(-c3cc4ccccc4cc3O)n2CCOC)s1,inconclusive: 1.1e-09 M
9,CC(C)NC[C@H](O)c1ccc(NS(C)(=O)=O)cc1,inconclusive: 1.5e-09 M
10,CCO[C@H]1O[C@@H]([C@H](COCc2ccccc2)OCc2ccccc2)[C@@H](OCc2ccccc2)[C@H]1O,inactive
11,COCCn1cnnc1SCC(=O)Nc1ccccc1C(=O)Nc1ccc2c(c1)OCO2,inconclusive: 1.1e-09 M
12,COc1cc2nncc(SCc3ccc(Cl)c(Cl)c3)c2cc1OC,inconclusive: 1.1e-09 M
13,O=C(c1ccco1)n1nc(-c2ccccc2)nc1NCc1ccco1,inconclusive: 1.3e-09 M
14,COC(=O)c1ccc(-c2ccc(CNCC(O)c3ccccc3)o2)cc1 (stereo unspecified),inconclusive: 1.2e-09 M
15,CC(=O)NCCc1ccc(S(=O)(=O)Nc2cccnc2)cc1,inconclusive: 1.6e-09 M
16,NC(=O)c1ncn([C@@H]2O[C@@H](CO)[C@@H](O)[C@H]2O)n1,inconclusive: 1.2e-09 M
17,Cn1c(=O)c2[nH]c(/N=N\N3CCN(CCO)CC3)nc2n(C)c1=O,inconclusive: 1.2e-09 M
18,CC(=O)c1ccc(C(C)(C)c2ccc(C(C)=O)s2)s1,inconclusive: 1.4e-09 M
19,CN[C@@H]1[C@H](O)[C@H](NC)[C@@H]2O[C@]3(O)C(=O)C[C@@H](C)O[C@H]3O[C@@H]2[C@H]1O,inactive
20,NC(N)=NN=Cc1c(Cl)cccc1Cl,inconclusive: 1.6e-09 M
21,COc1c(Br)cc(Br)cc1C(=O)O,inconclusive: 2e-09 M
22,CSc1cccc(NC(=O)CN(C)S(=O)(=O)c2ccc(F)cc2)c1,inconclusive: 1.1e-09 M

# 2 entries from above, reformatted.
row | SMILES | max dye-equivalent concentration
18 | CC(=O)c1ccc(C(C)(C)c2ccc(C(C)=O)s2)s1 | inconclusive: 1.4e-09 M
19 | CN[C@@H]1[C@H](O)[C@H](NC)[C@@H]2O[C@]3(O)C(=O)C[C@@H](C)O[C@H]3O[C@@H]2[C@H]1O | inactive

# Following part

row,SMILES,max dye-equivalent concentration
1,O=c1cc(CNCCCO)c2ccccc2[nH]1,inconclusive: 1.2e-09 M
2,CCn1nnnc1Oc1ccc(Cl)cc1,inconclusive: 1.4e-09 M
3,CN1CCN(S(=O)(=O)c2ccc(N(C)Cc3cccs3)nc2)CC1,inconclusive: 1.5e-09 M
4,Cc1cccc(CNc2ncncc2-c2ccc(C(=O)N(C)C)cc2)c1,inactive
5,COCCn1c(=O)c(-c2ccc(F)cc2)nc2cnc(Nc3cccc(OC)c3)nc21,inconclusive: 1.1e-09 M
6,Cc1sc(NC(=O)CSc2nnc(-c3ccc(F)cc3)o2)c(C#N)c1C,inconclusive: 1.4e-09 M
7,COc1ccc(N2CCN(Cc3nc(N)nc(Nc4ccccc4OC)n3)CC2)cc1,inconclusive: 1.1e-09 M
8,COCCCNc1nc2c(c(=O)n(C)c(=O)n2C)n1Cc1cccc(OC)c1,inconclusive: 1.4e-09 M
9,O=C(Nc1cccc(Cl)c1N1CCCC1)c1cc2ccccc2o1,inconclusive: 1.1e-09 M
10,CCc1ccc(-c2nc(CSCC(=O)N3CCN(c4ccccn4)CC3)c(C)o2)cc1,inconclusive: 1.3e-09 M
11,COc1ccc(-c2noc(CSc3nc4ccccc4c(=O)n3-c3ccccc3)n2)cc1,inconclusive: 1.5e-09 M
12,O=c1[nH]c2ccc(S(=O)(=O)Nc3ccc(-c4nnc5n4CCCCC5)cc3)cc2o1,inconclusive: 1.1e-09 M
13,CCCSc1nc(N2CCCC2)c2c(c1C#N)CC(C)(C)OC2,inconclusive: 1.5e-09 M
14,COc1ccc(Cn2nnnc2C(c2cc3ccc(OC)cc3[nH]c2=O)N2CCCCCC2)cc1 (stereo unspecified),inconclusive: 1.3e-09 M
15,Cc1cc(C)c(/C=C2/C(=O)Nc3ccccc32)[nH]1,inactive
16,O=C(CCN1CCOCC1)Nc1ccc(F)cc1F,inactive
17,COc1cccc(CNC(=O)C2CCN(S(=O)(=O)N3CCCC3)CC2)c1,inconclusive: 1.3e-09 M
18,C=C1CC[C@H](O)C/C1=C/C=C1\CCC[C@]2(C)[C@H]1CC[C@H]2[C@@H](C)/C=C\[C@@H](C)C(C)C,inconclusive: 1.1e-09 M
19,COc1ccc(CN(Cc2cc3cccc(C)c3[nH]c2=O)C(=O)N(C)C)cc1,inconclusive: 1.9e-09 M
20,Cc1nnc(SCCn2c(Br)nc3c2c(=O)n(C)c(=O)n3C)s1,inconclusive: 1.1e-09 M
21,C[C@@]12C=CC(=O)C=C1CC[C@@H]1C2=CC[C@]2(C)[C@@H]1CC[C@H]2C(=O)CN1CCN(c2cc(N3CCCC3)nc(N3CCCC3)n2)CC1,inactive
22,Cc1ccccc1[C@@H](OCCN(C)C)c1ccccc1,inconclusive: 1.1e-09 M

# Gathered by group, the entries above containing bromine
row,SMILES,max dye-equivalent concentration
21,COc1c(Br)cc(Br)cc1C(=O)O,inconclusive: 2e-09 M
20,Cc1nnc(SCCn2c(Br)nc3c2c(=O)n(C)c(=O)n3C)s1,inconclusive: 1.1e-09 M

# Next part:

row,SMILES,max dye-equivalent concentration
1,NS(=O)(=O)c1ccc(CNC(=O)C2CCCCC2)cc1,inconclusive: 2.4e-09 M
2,CC(=O)c1c(C)nc2ccccc2c1N,inconclusive: 1.1e-09 M
3,O=C(NCC(=O)N(CC1CCCO1)C(C(=O)NC1CCCC1)c1cccnc1)c1ccco1 (stereo unspecified),inconclusive: 1.2e-09 M
4,CCC(Oc1ccc(C)c(C)c1)C(=O)O (stereo unspecified),inconclusive: 1.1e-09 M
5,CC(=O)NC(Cc1c[nH]c2ccccc12)C(=O)NCc1ccc2c(c1)OCO2 (stereo unspecified),inconclusive: 1.2e-09 M
6,COc1cc(C)c(Cl)c(C)c1S(=O)(=O)NCc1ccc2c(c1)OCO2,inconclusive: 1.1e-09 M
7,C=C1C[C@@]23C[C@]1(O)CC[C@@H]2[C@]12C=C[C@@H](O)[C@@](C)(C(=O)O1)[C@@H]2[C@@H]3C(=O)O,inactive
8,COc1ccc(-n2nc3ccccc3n2)cc1,inconclusive: 1.5e-09 M
9,Nc1c(C(=O)c2cccs2)oc2ccccc12,inconclusive: 1.3e-09 M
10,CCOC(=O)Nc1c(C)n(C)n(-c2ccccc2)c1=O,inconclusive: 1.6e-09 M
11,O=C(COC(=O)c1ccc(=O)n(Cc2ccccc2)n1)Nc1ccc2c(c1)OCCO2,inconclusive: 1.1e-09 M
12,O=C(O)CSCCn1cccn1,inconclusive: 1.9e-09 M
13,CCc1c(C(=O)Nc2ccc(OC)c(Cl)c2)[nH]c(C)c1C(C)=O,inconclusive: 1.1e-09 M
14,N#Cc1c(C#N)c(-c2ccccc2)n(-c2ccc(C(=O)O)cc2)c1N,inconclusive: 1.4e-09 M
15,O=C(O)C(CC(=O)N1CCOCC1)NCc1ccccc1 (stereo unspecified),inconclusive: 1.8e-09 M
16,Brc1ccc(-c2csc(/N=C/N3CCOCC3)n2)cc1,inconclusive: 1.5e-09 M
17,Cc1nc2ccccn2c1/C(O)=C1\C(=O)C(=O)N(CCN(C)C)C1c1cccnc1 (stereo unspecified),inconclusive: 2.3e-09 M
18,O=C(COc1ccccc1)Nc1ccccc1N1CCN(c2ccc(F)cc2)CC1,inconclusive: 1.7e-09 M
19,CCNC(=O)N1C(=O)C2(OCCO2)c2cc(Br)ccc21,inconclusive: 1.6e-09 M
20,COc1ccc(C(=O)Oc2ccc(C(C)=O)cc2)c(OC)c1,inconclusive: 1.2e-09 M
21,CCOC(=O)N1CCC(NC(=O)CSCc2nc(-c3ccc(OC)c(OC)c3)oc2C)CC1,inconclusive: 1.1e-09 M
22,O=C(O)CCc1nc(-c2ccccc2)c(-c2ccccc2)o1,inconclusive: 1.1e-09 M

row,SMILES,max dye-equivalent concentration
1,CCC/C(O)=C1\C(=O)CCCC1=NC(C)C(=O)O (stereo unspecified),inconclusive: 2.5e-09 M
2,Cc1ccc(C(=O)CS(C)(=O)=O)cc1,inconclusive: 1.2e-09 M
3,COCCNc1ncnc2ccc(-c3ccc(N(C)C)cc3)cc12,inactive
4,Clc1ccc2c(c1)C(N1CCNCC1)=Nc1ccccc1O2,inconclusive: 1.2e-09 M and inconclusive: 1.4e-09 M
5,S=C(S)NCCCn1ccnc1,inactive
6,Nc1c(C(=O)NCCN2CCOCC2)c2nc3ccccc3nc2n1CCc1ccccc1F,inconclusive: 1.1e-09 M
7,COc1ccc(OC)c(N/C(=N\c2nc(C)cc(C)n2)NC(=O)c2ccco2)c1,inconclusive: 1.5e-09 M
8,CC(=O)c1ccccc1OCCCN1CCCCC1,inconclusive: 2e-09 M
9,CN(C(=O)c1ccccc1Cl)c1ccccc1,inconclusive: 1.1e-09 M
10,CCCOc1c(OC)cccc1C1CC(=O)Nc2cc(OC)c(OC)c(OC)c21 (stereo unspecified),inconclusive: 1.1e-09 M
11,C=CCN1C2CCCC1CC(NC(=O)Nc1cccc(C(C)=O)c1)C2 (stereo unspecified),inconclusive: 1.5e-09 M
12,Cc1cc(Nc2ccccc2)nc(-c2ccccc2O)n1,inconclusive: 1.6e-09 M
13,O=C(O)CCc1ccc(-c2ccccc2)n1CC(=O)O,inconclusive: 1.3e-09 M
14,COc1cccc(OCc2nnc(SCC(=O)OC3CCCCC3)n2C)c1,inconclusive: 1.1e-09 M
15,COc1ccc(C)cc1NC(=O)CSc1nnc(-c2ccccn2)n1Cc1ccco1,inconclusive: 1.2e-09 M
16,Cc1ccc(CN(C(=O)c2c(F)cccc2F)C2CC(C)(C)NC(C)(C)C2)o1,inactive
17,CCOC(=O)CSc1cc(C)nc(N)n1,inconclusive: 1.2e-09 M
18,CC1CCN(CC[C@@H]2CCCN2S(=O)(=O)c2cccc(O)c2)CC1,inactive
19,Cn1c(SCC(=O)c2ccccc2)nnc1-c1cnccn1,inconclusive: 1.5e-09 M
20,O=C(OCc1c(F)cccc1Cl)c1cnccn1,inconclusive: 1.7e-09 M
